{"source": "patent US10640466B2", "about": "“Anthracene based compounds and their uses” (UNIVERSITY OF HERTFORDSHIRE HIGHER EDUCATION CORPORATION, priority 2015, dated 2020)", "origin": "cited, not measured here", "key": {"[1]": {"molecular_target": "T1, S100P/RAGE function (Homo sapiens, UniProt P25815)", "T1 sequence (P25815 1-95)": "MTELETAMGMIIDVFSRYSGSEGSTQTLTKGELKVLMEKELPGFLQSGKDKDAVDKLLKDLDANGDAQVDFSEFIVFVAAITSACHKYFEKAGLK", "details": "in vitro studies; cited from earlier work"}, "[2]": {"tested_on": "pancreatic cancer tumours", "details": "mice models, previous studies; cited from earlier work"}, "[3]": {"tested_on": "Panc-1 cells", "details": "study by the same authors; cited from earlier work"}}, "note": "At least one structure is not confirmed: it was looked up by name or label, or the drawing left a doubt."}
{"smiles": "O=C(O)c1cc(=O)c2c(OCC(O)COc3cccc4oc(C(=O)O)cc(=O)c34)cccc2o1", "note": "[cromolyn]", "values": [{"measurement": "binding to S100P and effect on its binding to RAGE", "setting": "[1]", "result": "bind to S100P and inhibit its binding to RAGE"}, {"measurement": "concentration inhibiting S100P/RAGE function", "setting": "[1]", "result": 10, "unit": "μM/L"}, {"measurement": "effect on proliferation and invasion of pancreatic cancer tumours", "setting": "[2]", "result": "reduce the proliferation and invasion"}, {"measurement": "effect on invasion and proliferation of Panc-1 cells", "setting": "[3]", "result": "no significant effect"}]}
